# Experimental data published in the supplement of paper PMC10735217.
# Structures can show the parent of a compound that is named as a salt. Some of the results follow. Repeats in this data set agree poorly, so a single value says little.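 Human kidney-derived cells stably carry a construct in which eight TEAD-binding elements drive luciferase, measured by luminescence in a drug-repurposing library screen. A hit is any compound whose signal exceeds the plate mean by more than five robust Z scores.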
# Tested on: HEK293A TEAD-LUC reporter
# Assay: TEAD-luciferase reporter activity (YAP activation), robust Z score vs plate; higher = stronger YAP/TEAD activation
# Settings: 24 h
Compound,TEAD-luciferase reporter activity (compound concentration: 200 nM),TEAD-luciferase reporter activity (compound concentration: 10 uM),TEAD-luciferase reporter activity (compound concentration: 2 uM)
C#CCC(Cc1cnc2nc(N)nc(N)c2n1)c1ccc(C(=O)N[C@@H](CCC(=O)O)C(=O)O)cc1 (some centres undefined) [Pralatrexate(Folotyn)],inactive: -1.39,inactive: 0.436,
C#CCC(Cc1cnc2nc(N)nc(N)c2n1)c1ccc(C(=O)N[C@@H](CCC(=O)O)C(=O)O)cc1 (some centres undefined) [Pralatrexate],,,inactive: -2.06
CN(CCOc1ccc(NS(C)(=O)=O)cc1)CCc1ccc(NS(C)(=O)=O)cc1 [dofetilide],,,active: 6.37
CN(CCOc1ccc(NS(C)(=O)=O)cc1)CCc1ccc(NS(C)(=O)=O)cc1,inactive: -1.05,inactive: -0.432,
CCC1(O)C(=O)OCc2c1cc1n(c2=O)Cc2c-1nc1cc(F)c(C)c3c1c2C(N)CC3 (centres undefined) [Exatecan Mesylate],inactive: -1.1,inactive: -2.14,inactive: -1.45
O=C(NS(=O)(=O)c1ccc(Cl)cc1)c1ccc(Cl)cc1,inactive: -0.885,inactive: -1.57,inactive: -1.04
COc1cc(/C=N/NC(=O)CSc2cc(C)nc3ccccc23)cc(OC)c1OC,inactive: 1.48,inactive: 0.229,inactive: -1.36
O=c1c2ccccc2ncn1CCOc1ccc(-c2ccc(F)cc2F)cc1 [flubichin methanesulfonate],inactive: -0.078,inactive: 0.0955,inactive: 0.53
CCCc1nc(C(C)(C)O)c(C(=O)O)n1Cc1ccc(-c2ccccc2-c2nnn[nH]2)cc1 [Olmesartan],inactive: -0.568,inactive: -0.185,inactive: -0.197
Oc1c(I)cc(I)c(O)c1I [riodoxol],inactive: -1.13,inactive: -0.859,inactive: 0.703
CCCc1ccc(NS(=O)(=O)Cc2ccccc2)c(=O)n1CC(=O)NCc1ccccc1,inactive: -0.623,inactive: 0.602,inactive: -1.01
N=C(N)NCC1COC2(CCCCC2)O1 (centres undefined) [guanadrel],inactive: -0.825,inactive: -0.169,inactive: 1.13
CN1CCC(N2CCN(C(=O)[C@H](NC(=O)c3ccc4cc[nH]c4c3)c3ccccc3)CC2)CC1,inactive: -0.631,inactive: -0.632,inactive: 3.13
O=C(Nc1cc(Oc2cc(F)c(NC(=O)C3(C(=O)Nc4ccc(F)cc4)CC3)cc2F)ccn1)C1CC1 [Altiratinib],inactive: -0.526,inactive: -2.71,inactive: 1.8
CCCc1ncc(C(=O)O)s1,inactive: -0.533,inactive: 1.19,inactive: -0.552
NC[C@@H]1O[C@@H](O[C@@H]2[C@@H](O[C@@H]3O[C@H](CO)[C@@H](O)[C@H]3O)[C@H](O)[C@@H](N)C[C@H]2N)[C@@H](N)[C@H](O)[C@H]1O [Ribostamycin Sulfate],inactive: 3.82,inactive: -0.543,inactive: -1.07
CN(C)CCCNc1c2ccccc2nc2cccc([N+](=O)[O-])c12,inactive: -1.4,inactive: -2.79,inactive: -3.38
C[C@@H]1CCCN1CCc1cc2cc(-c3ccc(C#N)cc3)ccc2o1,inactive: 0.334,inactive: -0.516,inactive: 0.525
C[C@@H](C(=O)O)c1ccc2cc(OCc3ccc4ccccc4n3)ccc2c1,inactive: -1.08,inactive: -0.14,inactive: 0.0303
N#C[C@@H]1C[C@@H]2C[C@@H]2N1C(=O)[C@@H](N)[C@@]12C[C@@H]3C[C@@H](C[C@@](O)(C3)C1)C2 [saxagliptin],,,inactive: -1.53
CC(=O)c1ccc(NS(C)(=O)=O)c(Oc2ccc(F)cc2F)c1,inactive: 0.816,inactive: -0.567,inactive: -1.38
COc1cc(C(=O)OCCN2CCN(CCCN3c4ccccc4Sc4ccc(Cl)cc43)CC2)cc(OC)c1OC,inactive: -1.3,inactive: -0.185,inactive: -0.917
Cc1ccc(-c2nc(C#N)c(C#N)[nH]2)cc1,inactive: -1.57,inactive: 1.04,inactive: -0.353
CC[C@H](C)[C@H](NC(=O)[C@@H](N)CCCNC(=N)N)C(=O)N[C@H](C(=O)N1CCC[C@H]1C(=O)N[C@@H](C)C(N)=O)C(C)C [dusquetide],inactive: -2.26,inactive: -0.744,inactive: -0.281
CN(C)CCN(Cc1ccccc1)c1ccccc1,inactive: 0.937,inactive: -0.682,inactive: 0.751
CCCCCC(/C=C/n1ccnc1)OCc1ccccc1 (centres undefined) [midazogrel],inactive: 4.26,inactive: -1.19,inactive: -1.31

Compound,TEAD-luciferase reporter activity (compound concentration: 200 nM),TEAD-luciferase reporter activity (compound concentration: 10 uM),TEAD-luciferase reporter activity (compound concentration: 2 uM)
CCOC(=O)c1ncc2[nH]c3cccc(OC(C)C)c3c2c1COC,inactive: -0.775,inactive: -0.632,inactive: 1.74
CN1CCCC(CN2c3ccccc3Sc3ccccc32)C1 (centres undefined) [Mepazine],inactive: -0.455,inactive: -0.684,
CN(C(=O)c1cc2ccccc2cc1C(=O)C(c1cccc2ccccc12)P(=O)(O)O)C1CCN(C(=O)c2ccc3ccccc3c2)CC1 (centres undefined),inactive: -1.04,inactive: -1.62,inactive: 2
C=C(COC(=O)NC)COC(=O)NC,inactive: 0.867,inactive: -0.323,inactive: -0.976
CCCCCCCCCCCCCCCC=O [palmitoyl collagenic acid],inactive: -0.409,inactive: 0.51,inactive: -1.41
COc1cc(N)c(Cl)cc1C(=O)N[C@@H]1CCN(CCC(=O)Nc2cccc3ncccc23)C[C@@H]1OC,inactive: -1.17,inactive: 0.239,inactive: -1.47
COc1ccc(C[C@@H](C)[C@@H](C)Cc2ccc(OC)c(OC)c2)cc1OC [terameprocol],inactive: -0.0798,inactive: -1.41,active: 5.01
CNC(=O)[C@H](C/C=C/c1ccc(N(C)c2ncccn2)cc1)NC(=O)c1ccccc1,inactive: -0.826,inactive: -0.835,inactive: -0.253
CC1=NN(c2ccc(C)c(C)c2)C(=O)/C1=N\Nc1cccc(-c2cccc(C(=O)O)c2)c1O [eltrombopag olamine],inactive: -0.655,inactive: 2.38,inactive: 0.302
COc1cc2nc(N3CCN(C(=O)C4CCCC4)CC3)nc(N)c2cc1OC,inactive: -1.32,inactive: -0.168,inactive: -0.252
COc1ccc(NS(=O)(=O)c2ccc(N=Nc3ccc(O)c(C(=O)O)c3)cc2)nn1 [Salazodine],inactive: 0.0355,inactive: 0.204,inactive: -1.2
CCCCn1c(=O)[nH]c(=O)c2c1ncn2CCC(C)C,inactive: -0.724,inactive: -0.362,inactive: -0.696
CC[C@H](C)[C@@H](NC(=O)[C@@H](CCC(=O)O)NC(=O)[C@H](Cc1cnc[nH]1)NC(=O)[C@H](CC(C)C)NC(=O)[C@H](N)Cc1ccccc1)C(=O)N[C@H]1CCCCNC1=O,inactive: -0.0979,inactive: -0.778,inactive: -0.515
Cc1cc(N2C(=O)NC(=O)C2(C)C)cc(C)c1CCS(=O)(=O)N1CCC2(CC1)N=C(c1ccc(OC(F)(F)F)cc1)NC2=O,inactive: -0.677,inactive: -0.907,inactive: -0.362
CC(C)(C)c1ccc(C#Cc2ccc(C(=O)O)cc2)cc1OC1CCCCO1 (centres undefined),inactive: -1.04,inactive: 1.9,inactive: -1.27
Cc1nc2cnccc2n1CC1CCN(C(=O)/C=C(/c2ccccc2)c2ccc(/N=N/c3ccc(O)c(C(=O)O)c3)cc2)CC1 [Dersalazine],inactive: -0.468,inactive: 1.74,inactive: -0.563
C[C@](Cc1c[nH]c2ccccc12)(NC(=O)OC1C2CC3CC(C2)CC1C3)C(=O)NC[C@H](NC(=O)CCC(=O)O)c1ccccc1 (some centres undefined),inactive: -1.34,inactive: 2.51,inactive: -1.73
CC(=O)NCC1CN(c2ccc(OCC3(O)CCN(c4nc5c(cc4F)c(=O)c(C(=O)O)cn5C4CC4)CC3)c(F)c2)C(=O)O1 (centres undefined),inactive: -0.942,inactive: 0.287,inactive: 2.09
Cc1cccc(S(=O)(=O)Nc2ccc(C)n(CC(=O)NCCONC(=N)N)c2=O)c1,inactive: 0.0326,inactive: 0.994,inactive: 0.139
CCCCN(CCCC)CCCOc1c(C)cc(C(=O)c2cc(=O)c3ccccc3o2)cc1C [bucromarone],inactive: -0.52,inactive: -0.426,inactive: -1.37
O=C(O)Cc1ccc2c(c1)/C(=C/CN1CCC(Cc3ccccc3)CC1)c1ccccc1CO2,inactive: -0.671,inactive: -0.712,inactive: -0.756
CC(C)(O)c1cn(-c2ccc(-c3cccc(S(C)(=O)=O)c3)cc2)c(C(C)(C)c2ccccc2Cl)n1,inactive: 0.937,inactive: 0.266,inactive: 0.23
COc1ccc(C2=N[C@@H](c3ccc(Cl)cc3)[C@@H](c3ccc(Cl)cc3)N2C(=O)N2CCNC(=O)C2)c(OC(C)C)c1,inactive: 1.01,inactive: 0.356,inactive: -1.13
Cc1cc2c(s1)Nc1ccccc1N=C2N1CCN(C)CC1,inactive: 3.87,inactive: -1.08,
Cc1cc2c(s1)Nc1ccccc1N=C2N1CCN(C)CC1 [Olanzapine],,,inactive: -1
COc1ccc2[nH]c(C(=O)N3CC(C)CC(C)C3)cc2c1 (centres undefined),inactive: -1.04,inactive: 1.23,inactive: -0.416

# 2 entries from above in another layout.
Compound | TEAD-luciferase reporter activity (compound concentration: 200 nM) | TEAD-luciferase reporter activity (compound concentration: 10 uM) | TEAD-luciferase reporter activity (compound concentration: 2 uM)
COc1ccc(NS(=O)(=O)c2ccc(N=Nc3ccc(O)c(C(=O)O)c3)cc2)nn1 [Salazodine] | inactive: 0.0355 | inactive: 0.204 | inactive: -1.2
C[C@](Cc1c[nH]c2ccccc12)(NC(=O)OC1C2CC3CC(C2)CC1C3)C(=O)NC[C@H](NC(=O)CCC(=O)O)c1ccccc1 (some centres undefined) | inactive: -1.34 | inactive: 2.51 | inactive: -1.73
